{"source": "paper PMC6923452", "about": "“SHBG141–161 Domain-Peptide Stimulates GPRC6A-Mediated Response in Leydig and β-Langerhans cell lines” (Scientific Reports, 2019)", "origin": "cited, not measured here", "tested_on": "GPRC6A", "design": "method as in 2 sources, ref 5 = [5]; PMID 15576628; doi:10.1124/mol.104.007559; 5. Wellendorph P Deorphanization of GPRC6A: a promiscuous L-alpha-amino acid receptor with preference for basic amino acids Molecular Pharmacology 2005 67 3 589 97 10.1124/mol.104.007559 15576628 ||| ref 6 = [6]; PMID 20947496; doi:10.1074/jbc.M110.158063; 6. Pi M Parrill AL Quarles LD GPRC6A mediates the non-genomic effects of steroids Journal of Biological Chemistry 2010 285 51 39953 64 10.1074/jbc.M110.158063 20947496 PMC3000977", "conditions": "cited from earlier work", "data": [{"compound": "NCCC[C@H](N)C(=O)O", "note": "[L-ornithine]", "values": [{"measurement": "activation of GPRC6A", "value": "activated"}]}]}
